Results are given in words; binding and its absence hold for the method and conditions named. Binding seen in cells or lysates may run through a third protein. Some binding calls cover weakened binding; strength is not graded here. Tags and fused reporters may be left off the sequences shown.
Experiments:
Assay in all cases: co-IP; transfected cells lysed in 0.2% Triton X-100, 200 mM NaCl, 50 mM Tris pH 7.4, 1 mM CaCl2; the Flag-tagged protein precipitated with anti-Flag M2 affinity gel at 4°C for 1 hr; HA-IFT57 detected by anti-HA blot; D1R-IFT57 also tested after control or Rab23 siRNA
[1] = target: T1, Flag-KIF17 (UniProt Q9P2E2)
T1 sequence: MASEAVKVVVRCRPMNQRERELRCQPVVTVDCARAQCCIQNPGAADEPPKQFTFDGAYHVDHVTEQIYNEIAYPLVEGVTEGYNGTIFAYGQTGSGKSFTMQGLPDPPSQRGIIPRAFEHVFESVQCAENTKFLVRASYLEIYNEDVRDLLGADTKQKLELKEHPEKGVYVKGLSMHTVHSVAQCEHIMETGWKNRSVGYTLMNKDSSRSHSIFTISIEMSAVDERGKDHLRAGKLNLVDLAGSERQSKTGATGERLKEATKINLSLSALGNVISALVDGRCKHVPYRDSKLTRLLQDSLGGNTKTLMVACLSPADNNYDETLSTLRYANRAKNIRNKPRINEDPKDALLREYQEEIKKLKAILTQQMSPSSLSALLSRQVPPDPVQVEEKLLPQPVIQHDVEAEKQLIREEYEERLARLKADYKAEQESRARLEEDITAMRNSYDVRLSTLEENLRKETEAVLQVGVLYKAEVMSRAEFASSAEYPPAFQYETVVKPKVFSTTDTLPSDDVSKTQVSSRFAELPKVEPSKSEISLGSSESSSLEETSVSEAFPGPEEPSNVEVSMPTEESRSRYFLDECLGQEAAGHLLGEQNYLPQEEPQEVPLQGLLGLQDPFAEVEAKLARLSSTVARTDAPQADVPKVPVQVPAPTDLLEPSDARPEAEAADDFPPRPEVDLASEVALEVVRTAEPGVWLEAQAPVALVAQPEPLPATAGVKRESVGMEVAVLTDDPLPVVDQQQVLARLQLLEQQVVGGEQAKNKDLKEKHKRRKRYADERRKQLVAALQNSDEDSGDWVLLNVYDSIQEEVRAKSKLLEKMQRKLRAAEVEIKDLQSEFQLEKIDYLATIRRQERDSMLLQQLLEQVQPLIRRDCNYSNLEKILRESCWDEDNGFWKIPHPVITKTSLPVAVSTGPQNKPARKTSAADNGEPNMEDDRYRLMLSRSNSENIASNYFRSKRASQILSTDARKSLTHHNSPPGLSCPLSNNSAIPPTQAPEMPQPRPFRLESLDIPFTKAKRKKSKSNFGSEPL

The chains behind the UniProt entries cited, without tags or fusion partners. Where a name states a change or a piece, a line headed by the entry shows the natural chain unless it says otherwise. A line that says so, or that is headed by a name, gives the form on record, which may keep a tag or linker. Residues count along the entry.
UniProt P21728: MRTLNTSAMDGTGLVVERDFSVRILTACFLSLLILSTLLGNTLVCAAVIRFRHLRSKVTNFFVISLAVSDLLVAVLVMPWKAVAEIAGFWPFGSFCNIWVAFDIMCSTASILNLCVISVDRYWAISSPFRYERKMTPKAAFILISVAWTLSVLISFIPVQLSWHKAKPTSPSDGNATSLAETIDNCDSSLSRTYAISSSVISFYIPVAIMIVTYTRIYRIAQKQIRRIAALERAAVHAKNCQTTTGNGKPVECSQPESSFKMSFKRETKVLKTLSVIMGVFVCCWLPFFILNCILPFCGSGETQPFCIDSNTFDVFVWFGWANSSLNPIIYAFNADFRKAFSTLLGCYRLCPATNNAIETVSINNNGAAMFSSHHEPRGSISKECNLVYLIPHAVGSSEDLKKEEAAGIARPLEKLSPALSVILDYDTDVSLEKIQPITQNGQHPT
Flag-tagged D1R with internal deletion of residues 381-395 (P21728, form named): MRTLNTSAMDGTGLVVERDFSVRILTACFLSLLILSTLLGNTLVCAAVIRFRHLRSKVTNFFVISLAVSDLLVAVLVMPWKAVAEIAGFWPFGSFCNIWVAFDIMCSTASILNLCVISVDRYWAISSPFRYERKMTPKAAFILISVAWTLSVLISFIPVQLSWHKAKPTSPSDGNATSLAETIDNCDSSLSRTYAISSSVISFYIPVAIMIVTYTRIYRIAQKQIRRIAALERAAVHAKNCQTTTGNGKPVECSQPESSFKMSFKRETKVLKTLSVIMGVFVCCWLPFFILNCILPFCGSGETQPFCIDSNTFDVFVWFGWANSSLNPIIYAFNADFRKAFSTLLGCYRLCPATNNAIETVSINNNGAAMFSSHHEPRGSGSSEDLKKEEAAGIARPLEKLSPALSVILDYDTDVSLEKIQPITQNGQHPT
UniProt P32300: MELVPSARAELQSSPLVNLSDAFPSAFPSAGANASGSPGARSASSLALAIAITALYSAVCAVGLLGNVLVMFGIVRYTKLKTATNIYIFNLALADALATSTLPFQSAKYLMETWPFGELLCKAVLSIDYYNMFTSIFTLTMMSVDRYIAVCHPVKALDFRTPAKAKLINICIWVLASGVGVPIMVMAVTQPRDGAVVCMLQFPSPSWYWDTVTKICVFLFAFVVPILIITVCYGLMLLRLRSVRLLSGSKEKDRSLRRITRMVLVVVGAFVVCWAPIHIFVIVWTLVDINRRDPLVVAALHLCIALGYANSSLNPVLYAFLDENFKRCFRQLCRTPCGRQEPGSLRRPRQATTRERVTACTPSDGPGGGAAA

[2] = target: Flag-tagged D1R with internal deletion of residues 381-395 (UniProt P21728)
[3] = target: Flag-tagged delta opioid peptide receptor (UniProt P32300)
[4] = target: Flag-tagged wild-type D1-type dopamine receptor (UniProt P21728)

binding [1]: binds
binding [2]: binds
binding [3]: no binding
binding [4]: binds
B1: N-terminally HA-tagged IFT57 (protein, UniProt Q8BXG3 1-429)
chain: MAAAAAVIPPSGLDDGVSRARGEGAGEAVVERGPGAAYHMFVVMEDLVEKLKLLRYEEELLRKSNLKPPSRHYFALPTNPGEQFYMFCTLAAWLINKTGRAFEQPQEYDDPNATISNILSELRSFGRTADFPPSKLKSGYGEQVCYVLDCLAEEALKYIGFTWKRPSYPVEELEEETVPEDDAELTLSKVDEEFVEEETDNEENFIDLNVLKAQTYRLDTNESAKQEDILESTTDAAEWSLEVERVLPQLKVTIRTDNKDWRIHVDQMHQHKSGIESALKETKGFLDKLHNEISRTLEKIGSREKYINNQLEHLVQEYRGAQAQLSEARERYQQGNGGVTERTRLLSEVTEELEKVKQEMEEKGSSMTDGTPLVKIKQSLTKLKQETVQMDIRIGVVEHTLLQSKLKEKCNMTRDMHAAVTPESAIGFY

Source: paper PMC4547097
